Experimental data as given in PubChem BioAssay AID1439 (NMMLSC, 2008).
Among all 220,000 compounds or so, about 770 (0.35%) were called active. Inconclusive means that the source gave no clear call. Such entries were picked first, then a sample of the others. Rule as the data show it: active = binding response below about 49% or above about 150%; inconclusive = no clear call, values can overlap the other calls; inactive = in between.

Chains of the proteins cited; added tags and fusions are not shown.
UniProt P09471, whole entry, looked up: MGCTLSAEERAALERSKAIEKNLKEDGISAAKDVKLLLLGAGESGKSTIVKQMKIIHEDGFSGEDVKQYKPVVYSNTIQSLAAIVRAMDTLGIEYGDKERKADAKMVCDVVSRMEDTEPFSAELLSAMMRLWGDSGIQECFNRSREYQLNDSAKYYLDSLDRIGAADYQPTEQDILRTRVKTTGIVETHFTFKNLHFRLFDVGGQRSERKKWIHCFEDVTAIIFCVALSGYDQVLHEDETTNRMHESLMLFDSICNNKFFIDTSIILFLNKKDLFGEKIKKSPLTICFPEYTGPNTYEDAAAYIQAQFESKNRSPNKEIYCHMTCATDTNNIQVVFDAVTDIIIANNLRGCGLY

Each molecule was assayed against Guanine nucleotide-binding protein G(o) subunit alpha (Homo sapiens) (UniProt P09471) (assay: RGS7-Galphao binding modulators, primary screen, biochemical, multiplexed bead flow cytometry (AID 1439;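 also: fluorescent Galphao held in activated GDP-AlF4 state binding bead-coupled RGS7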)). Conditions: at 10 µM, actives lie on both sides.
With `CCN(c1ccccc1)c1nc2ccsc2c(=O)s1` the binding response (% of control) was inactive: 99.8%.
`NC(=O)COC(=O)CSc1cccc2cccc(Cl)c12` was tested, and the binding response (% of control) was inconclusive: 108%.
In the case of `Cc1nc(C(=O)NCC(=O)c2ccc(Cl)cc2)c(C(F)(F)F)o1`, the binding response (% of control) is reported as inconclusive: 80.9%.
With `O=C(Cn1cnc2ccccc2c1=O)N1CCN(Cc2ccccc2)CC1` the binding response (% of control) was inactive: 102%.
With `C=C(C)C(=O)Nc1cccc(C2=NOC3(C2)C[C@@H](C(N)=O)N(C(=O)/C(C)=C/C)C3)c1` (stereo partly specified) the binding response (% of control) was inconclusive: 106%.
With `COc1cc2c(cc1N/C=C(\C#N)c1nc(-c3ccc(F)cc3)cs1)oc1ccccc12` the binding response (% of control) was inconclusive: 141%.
In the case of `CCOc1ccc(OCCCCn2cnc3ccccc3c2=O)cc1`, the binding response (% of control) is reported as inconclusive: 84.4%.
`Cc1c(C=O)c(Cl)n(C)c(=O)c1C#N` was tested, and the binding response (% of control) was inconclusive: 87%.
In the case of `CCCn1nc(Oc2nc(N(C)C)nc(N(C)C)n2)ccc1=O`, the binding response (% of control) is reported as inactive: 94.7%.
With `COc1ccc2[nH]c(=O)c(CN(C(=O)c3cccnc3)c3cccc(C)c3)cc2c1` the binding response (% of control) was inconclusive: 111%.
For `CN(C)c1ccc(/C=C/C(=O)c2cc(Cl)ccc2O)cc1`, the binding response (% of control) was inconclusive: 112%.
For `COCCNc1nc(-c2ccccc2)nc2c1oc1ccccc12`, the binding response (% of control) was inconclusive: 80.2%.
`Cc1ccc2cc(CN(C(=O)c3cccs3)c3ccccc3)c(=O)[nH]c2c1` was tested, and the binding response (% of control) was inconclusive: 105%.
For `CC(C)Cn1cnc2c1c(=O)n(CC(=O)N(C)C)c(=O)n2Cc1ccccc1`, the binding response (% of control) was inconclusive: 102%.
In the case of `O=c1oc2ccc(Cl)cc2nc1/C=C(\O)c1ccco1`, the binding response (% of control) is reported as inconclusive: 94.8%.
For `Cc1ccc(-c2cc(C(F)F)n3ncc(C(=O)N4CCCCC4c4cccnc4)c3n2)cc1` (stereo unspecified), the binding response (% of control) was inconclusive: 98.5%.
`CC(C)(CC(=O)O)CC(=O)NCc1c(Cl)cccc1Oc1ccccc1` was tested, and the binding response (% of control) was inconclusive: 157%.
For `O=CN/N=C/c1c(O)ccc2ccccc12`, the binding response (% of control) was inconclusive: 130%.
For `O=C(O)CCN1C(=O)C2C3c4ccccc4C(c4ccccc43)C2C1=O` (stereo unspecified), the binding response (% of control) was inconclusive: 92.1%.
In the case of `O=C(NCc1csc(-c2cccs2)n1)C1CC1`, the binding response (% of control) is reported as inconclusive: 94.7%.
With `O=C(Nc1ccc(Cl)cc1Cl)C1=Cc2ccccc2OC1` the binding response (% of control) was inactive: 84.1%.
For `C[C@@H](CO)NC(=O)c1ccc2c3n(nc2c1)-c1ccc(Cl)cc1CO3`, the binding response (% of control) was inconclusive: 96.4%.
In the case of `COc1ccc(CC(=O)NCc2n[nH]c(=S)n2-c2ccc(F)cc2)cc1`, the binding response (% of control) is reported as inconclusive: 89%.
For `S=C(NC1CC1)NC1CCCc2ccccc21` (stereo unspecified), the binding response (% of control) was inactive: 104%.
For `COc1cc2c(cc1OC)C(C)N(C(=O)c1nccnc1C(=O)O)CC2` (stereo unspecified), the binding response (% of control) was inconclusive: -44.8%.
In the case of `CC(=O)/C(=C(/O)c1ccccc1)c1nc2ccccc2[nH]1`, the binding response (% of control) is reported as inconclusive: 127%.
